PubChem BioAssay AID504808 | Drosophila RNAi Screening Center – 2011
In all, the deposit lists about 21,000 reagents; this is an unselected part of those that have a named target and a result. In the full data, 18 (0.084%) were called active. 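Raw counts without plate normalisation, one of two replicates; the ratio scores behind the calls were not deposited.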 A plus sign joins genes that one reagent is predicted to hit. Not stated in the record: the amount of reagent, the time to read-out.

Assay: 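Chromatin factors that keep E2F targets switched off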 (primary screen)
Cells: Drosophila S2 cells
Reagent: long dsRNA against Drosophila genes
Read-out: 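Dual luciferase plate measurements; E2F-specific signal taken as firefly over Renilla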
Scale: E2F firefly: higher = more E2F reporter activity; Renilla normaliser: higher = more normaliser reporter signal
Active means: 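Called active if the normalised E2F reporter went up by over 50%; the cutoff is arbitrary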

With knock-down of Or69a [DRSC11243] the results were E2F firefly, rep 1 = 1.31e5; Renilla normaliser, rep 1 = 7374; inactive.
swi2 [DRSC06457] scored E2F firefly, rep 1 = 1.47e5; Renilla normaliser, rep 1 = 5188; inactive.
CG9568 [DRSC03265] scored E2F firefly, rep 1 = 1.44e5; Renilla normaliser, rep 1 = 5458; inactive.
lncRNA:sphinx + ATPsynF [DRSC17191] showed E2F firefly, rep 1 = 88098; Renilla normaliser, rep 1 = 2699; inactive.
CG15117 [DRSC06539] showed E2F firefly, rep 1 = 81380; Renilla normaliser, rep 1 = 3905; inactive.
mrn [DRSC10913] scored E2F firefly, rep 1 = 66244; Renilla normaliser, rep 1 = 3286; inactive.
With knock-down of PlexB [DRSC17177], the screen gave E2F firefly, rep 1 = 1.19e5; Renilla normaliser, rep 1 = 6115; inactive.
CG15882 [DRSC19735] showed E2F firefly, rep 1 = 1.36e5; Renilla normaliser, rep 1 = 5823; inactive.
After knock-down of gw [DRSC17135], the record shows E2F firefly, rep 1 = 858; Renilla normaliser, rep 1 = 728; inactive.
gw [DRSC17160] gave E2F firefly, rep 1 = 30436; Renilla normaliser, rep 1 = 4442; inactive.
With knock-down of cas [DRSC12373] the results were E2F firefly, rep 1 = 1.17e5; Renilla normaliser, rep 1 = 6440; inactive.
After knock-down of bwa [DRSC01749], the screen gave E2F firefly, rep 1 = 99208; Renilla normaliser, rep 1 = 1583; inactive.
Against bwa [DRSC02310] the deposit lists E2F firefly, rep 1 = 99035; Renilla normaliser, rep 1 = 3964; inactive.
Against CG11293 (retired record) [DRSC04098], the values are E2F firefly, rep 1 = 99708; Renilla normaliser, rep 1 = 3808; inactive.
Knock-down of anchor [DRSC10861] came out at: E2F firefly, rep 1 = 78484; Renilla normaliser, rep 1 = 3764; inactive.
Against CaMKI [DRSC17162] the deposit lists E2F firefly, rep 1 = 1883; Renilla normaliser, rep 1 = 896; inactive.
Knock-down of ND-B17.2 [DRSC00577] gave: E2F firefly, rep 1 = 1.65e5; Renilla normaliser, rep 1 = 5362; inactive.

Limited to “E2F firefly, rep 1” (2 entries from above):
bwa [DRSC02310]: 99035
CG11293 (retired record) [DRSC04098]: 99708

Next results follow.
Knock-down of cert [DRSC09674] resulted in: E2F firefly, rep 1 = 75092; Renilla normaliser, rep 1 = 3948; inactive.
CG4935 [DRSC01924] showed E2F firefly, rep 1 = 96629; Renilla normaliser, rep 1 = 4136; inactive.
Ndc80 [DRSC20221] gave E2F firefly, rep 1 = 8640; Renilla normaliser, rep 1 = 740; inactive.
For CG31211 [DRSC14953] the deposit lists E2F firefly, rep 1 = 81474; Renilla normaliser, rep 1 = 3467; inactive.
Depletion of CG31211 [DRSC15344] resulted in: E2F firefly, rep 1 = 1.59e5; Renilla normaliser, rep 1 = 6983; inactive.
Against tsl [DRSC17090] the deposit lists E2F firefly, rep 1 = 1.52e5; Renilla normaliser, rep 1 = 8107; inactive.
Against Rai1 [DRSC20157], the values are E2F firefly, rep 1 = 1.54e5; Renilla normaliser, rep 1 = 6558; inactive.
Silencing of CG15369 [DRSC18041] came out at: E2F firefly, rep 1 = 1.32e5; Renilla normaliser, rep 1 = 5729; inactive.
After knock-down of TyrRS [DRSC10430] the results were E2F firefly, rep 1 = 78158; Renilla normaliser, rep 1 = 3487; inactive.
With knock-down of CG13681 (retired record) [DRSC08906] the results were E2F firefly, rep 1 = 1.29e5; Renilla normaliser, rep 1 = 4828; inactive.
CG13681 (retired record) [DRSC08907] showed E2F firefly, rep 1 = 1.15e5; Renilla normaliser, rep 1 = 4547; inactive.
For CG13681 (retired record) [DRSC10038], the entry reads E2F firefly, rep 1 = 98556; Renilla normaliser, rep 1 = 5068; inactive.
Depletion of CG13681 (retired record) [DRSC10039] resulted in: E2F firefly, rep 1 = 1.04e5; Renilla normaliser, rep 1 = 3884; inactive.
Against CG13681 (retired record) [DRSC10927], the values are E2F firefly, rep 1 = 1.02e5; Renilla normaliser, rep 1 = 4135; inactive.
CG13681 (retired record) [DRSC10929] gave E2F firefly, rep 1 = 76656; Renilla normaliser, rep 1 = 3607; inactive.
